Results are given in words; binding and its absence hold for the method and conditions named. In cells and extracts the contact can be indirect. Binding calls can cover weak binding; strength is not graded here.
B1: Scc1_(1-566) Δ152-256 (protein, UniProt Q12158)
chain: MVTENPQRLTVLRLATNKGPLAQIWLASNMSNIPRGSVIQTHIAESAKEIAKASGCDDESGDNEYITLRTSGELLQGIVRVYSKQATFLLTDIKDTLTKISMLFKTSQKMTSTVNRLNTVTRVHQLMLEDAVTEREVLVTPGLEFLDDTTINDDDDNSVEQGRRLGESIMSEEPTDFGFDLDIEKEAPAGNIDTITDAMTESQPKQTGTRRNSKLLNTKSIQIDEETENSESIASSNTYKEERSNNLLTPQPTNFTTKRLWSEITESMSYLPDPILKNFLSYESLKKRKIHNGREGSIEEPELNVSLNLTDDVISNAGTNDNSFNELTDNMSDFVPIDAGLNEAPFPEENIIDAKTRNEQTTIQTEKVRPTPGEVASKAIVQMAKILRKELSEEKEVIFTDVLKSQANTEPENITKREASRGFFDILSLATEGCIGLSQTEAFGNIKIDAKPALFERFINA
modifications: 35S-methionine label
B2: Scc1_(1–566) triple mutant (Δ196–203 Δ244–251 Δ281–288) (protein, UniProt Q12158)
chain: MVTENPQRLTVLRLATNKGPLAQIWLASNMSNIPRGSVIQTHIAESAKEIAKASGCDDESGDNEYITLRTSGELLQGIVRVYSKQATFLLTDIKDTLTKISMLFKTSQKMTSTVNRLNTVTRVHQLMLEDAVTEREVLVTPGLEFLDDTTIPVGLMAQENSMERKVQGAAPWDTSLEVGRRFSPDEDFEHNNLSSEGPITSKSWEEGTRQSSRNFDTHENYIQDDDFPLDDAGTIKNDQNNDDDDNSVEQGRRLGESIMSEEPTEKEAPAGNIDTITDAMTESQPKQTGTRRNSKLLNTKSIQIDEETENSESIASSNTYKEERSNNLLTPQPTNFTTKRLWSEITESMSYLPDPILKNFLSYESLKKRKIHNGREGSIEEPELNVSLNLTDDVISNAGTNDNSFNELTDNMSDFVPIDAGLNEAPFPEENIIDAKTRNEQTTIQTEKVRPTPGEVASKAIVQMAKILRKELSEEKEVIFTDVLKSQANTEPENITKREASRGFFDILSLATEGCIGLSQTEAFGNIKIDAKPALFERFINA
modifications: 35S label
B3: Scc1_(1–566) double mutant (Δ196–203 Δ244–251) (protein, UniProt Q12158)
chain: MVTENPQRLTVLRLATNKGPLAQIWLASNMSNIPRGSVIQTHIAESAKEIAKASGCDDESGDNEYITLRTSGELLQGIVRVYSKQATFLLTDIKDTLTKISMLFKTSQKMTSTVNRLNTVTRVHQLMLEDAVTEREVLVTPGLEFLDDTTIPVGLMAQENSMERKVQGAAPWDTSLEVGRRFSPDEDFEHNNLSSEGPITSKSWEEGTRQSSRNFDTHENYIQDDDFPLDDAGTIKNDQNNDDDDNSVEQGRRLGESIMSEEPTDFGFDLDIEKEAPAGNIDTITDAMTESQPKQTGTRRNSKLLNTKSIQIDEETENSESIASSNTYKEERSNNLLTPQPTNFTTKRLWSEITESMSYLPDPILKNFLSYESLKKRKIHNGREGSIEEPELNVSLNLTDDVISNAGTNDNSFNELTDNMSDFVPIDAGLNEAPFPEENIIDAKTRNEQTTIQTEKVRPTPGEVASKAIVQMAKILRKELSEEKEVIFTDVLKSQANTEPENITKREASRGFFDILSLATEGCIGLSQTEAFGNIKIDAKPALFERFINA
modifications: 35S label

These binders were tested against GST-Scc2_(171–1504) (S. cerevisiae) (assay: pull-down; 10 μg GST-Scc2_(171-1504) on Glutathione Sepharose 4B beads; 35S-labelled in vitro translated Scc1, in the absence or presence of 10 μg ScSmc3head; 1 h at 4°C in 20 mM Tris-HCl pH 7.5, 150 mM NaCl, 0.1% Triton X-100; phosphorimager; only the target purified).

binding, binds:
B1
B2
B3

Reference: publication PMC6028919, “Scc2 Is a Potent Activator of Cohesin’s ATPase that Promotes Loading by Binding Scc1 without Pds5” (Molecular Cell, 2018)
